# According to the supplement of paper PMC4604168 (melanoma cell lines):
# Some of the results follow. Repeats are few or missing, and single values can be far off.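 The apoptosis fraction was the count of cleaved-PARP antibody-stained nuclei relative to all DNA-stained nuclei, imaged in 1,536-well plates. Screening doses were set so most cells survived, and baseline and induced cleaved-PARP levels vary greatly across cell lines.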
# Key:
# Assay in all cases: cleaved PARP positive nuclei fraction relative to DMSO control; melanoma cells; higher = more apoptosis
# Conditions in all cases: library dose: low library concentration; 72 h
# 501Mel = tested on: 501Mel
# A101D = tested on: A101D
# A2058 = tested on: A2058
# C32 = tested on: C32
# CBRC008 = tested on: CBRC008 (line from a melanoma biopsy)
# CBRC014 = tested on: CBRC014 (line from a melanoma biopsy)
# CBRC016 = tested on: CBRC016 (line from a melanoma biopsy)
# CBRC017 = tested on: CBRC017 (line from a melanoma biopsy)
# COLO792 = tested on: COLO792
# COLO800 = tested on: COLO800
# COLO829 = tested on: COLO829
# G361 = tested on: G361
# IPC-298 = tested on: IPC-298
# IST-MEL1 = tested on: IST-MEL1
# LB2518-MEL = tested on: LB2518-MEL
# LOXIMVI = tested on: LOXIMVI
Compound,cleaved PARP positive nuclei fraction (501Mel),cleaved PARP positive nuclei fraction (A101D),cleaved PARP positive nuclei fraction (A2058),cleaved PARP positive nuclei fraction (C32),cleaved PARP positive nuclei fraction (CBRC008),cleaved PARP positive nuclei fraction (CBRC014),cleaved PARP positive nuclei fraction (CBRC016),cleaved PARP positive nuclei fraction (CBRC017),cleaved PARP positive nuclei fraction (COLO792),cleaved PARP positive nuclei fraction (COLO800),cleaved PARP positive nuclei fraction (COLO829),cleaved PARP positive nuclei fraction (G361),cleaved PARP positive nuclei fraction (IPC-298),cleaved PARP positive nuclei fraction (IST-MEL1),cleaved PARP positive nuclei fraction (LB2518-MEL),cleaved PARP positive nuclei fraction (LOXIMVI)
"O=C(O)c1ccc2c(c1)nc(Nc1cccc(Cl)c1)c1ccncc12 + Oc1cc(-c2nc(-c3ccccc3)[nH]c2-c2ccncc2)ccc1Cl [L779450] (first compound 0.4 µM, partner dose 0.2 µM)",86.9%,31.5%,102%,33.8%,129%,153%,142%,377%,192%,112%,72.9%,177%,113%,92.2%,185%,134%
"CN1CCN(c2ccc3nc(-c4c(N)c5c(F)cccc5[nH]c4=O)[nH]c3c2)CC1 [Dovitinib] + COc1cc(N2CCC(N3CCN(C)CC3)CC2)ccc1Nc1ncc(Cl)c(Nc2ccccc2S(=O)(=O)C(C)C)n1 [NVP-TAE684] (first compound 0.1 µM, partner dose 0.08 µM)",81.3%,53.2%,95.7%,79%,137%,92.5%,35.2%,95.2%,71.9%,91.9%,94.4%,192%,47.7%,254%,161%,83.3%
"Nc1ccn([C@@H]2O[C@H](CO)[C@@H](O)C2(F)F)c(=O)n1 [gemcitabine] + Cc1cc([N+](=O)[O-])ccc1NS(=O)(=O)c1cc(Cl)ccc1Cl [FH535] (first compound 0.0004 µM, partner dose 1 µM)",61.4%,32.8%,140%,296%,355%,83.2%,557%,324%,83.7%,96.2%,71.8%,77.2%,149%,58.4%,63.1%,141%
"CCCS(=O)(=O)Nc1ccc(F)c(C(=O)c2c[nH]c3ncc(Cl)cc23)c1F + Cc1cc([N+](=O)[O-])ccc1NS(=O)(=O)c1cc(Cl)ccc1Cl [FH535] (first compound 0.08 µM, partner dose 1 µM)",59.1%,51%,80.8%,69.7%,546%,133%,1430%,368%,125%,104%,44.2%,129%,207%,156%,178%,106%
"CC(C)C[C@H](NC(=O)[C@H](Cc1ccccc1)NC(=O)c1cnccn1)B(O)O [Bortezomib] + O=C1NC(=O)/C(=C/c2ccc(-c3ccc(F)cc3O)o2)S1 [AS252424] (first compound 0.001 µM, partner dose 1 µM)",93.4%,106%,75%,97.5%,352%,178%,578%,213%,85.5%,143%,392%,1950%,66.8%,124%,232%,77.9%
"CNC(=O)c1cc(Oc2ccc(NC(=O)Nc3ccc(Cl)c(C(F)(F)F)c3)cc2)ccn1 [sorafenib] + COc1cc(N2CCC(N3CCN(C)CC3)CC2)ccc1Nc1ncc(Cl)c(Nc2ccccc2S(=O)(=O)C(C)C)n1 [NVP-TAE684] (first compound 0.4 µM, partner dose 0.08 µM)",151%,16.5%,70.2%,38.8%,45.8%,76.2%,92%,120%,71.9%,110%,99.5%,112%,66.9%,35.7%,66.4%,52.5%
"Cn1c(=O)n(-c2ccc(C(C)(C)C#N)cc2)c2c3cc(-c4cnc5ccccc5c4)ccc3ncc21 + N#Cc1c(O)c2c(-c3ccc(-c4ccccc4O)cc3)csc2[nH]c1=O [A769662] (first compound 0.004 µM, partner dose 2 µM)",151%,52.5%,90.8%,92.7%,94.8%,97.3%,48.4%,94.7%,139%,110%,83.7%,112%,109%,319%,47%,129%
"CS(=O)(=O)CCNCc1ccc(-c2ccc3ncnc(Nc4ccc(OCc5cccc(F)c5)c(Cl)c4)c3c2)o1 [lapatinib] + Cc1cc([N+](=O)[O-])ccc1NS(=O)(=O)c1cc(Cl)ccc1Cl [FH535] (first compound 0.8 µM, partner dose 1 µM)",108%,10.9%,160%,143%,431%,179%,239%,354%,108%,100%,54.8%,93%,51.5%,26.3%,70.9%,78.7%
"CO[C@H]1C[C@@H]2CC[C@@H](C)[C@@](O)(O2)C(=O)C(=O)N2CCCC[C@H]2C(=O)O[C@H]([C@H](C)C[C@@H]2CC[C@@H](OCCO)[C@H](OC)C2)CC(=O)[C@H](C)/C=C(\C)[C@@H](O)[C@@H](OC)C(=O)[C@H](C)C[C@H](C)/C=C/C=C/C=C/1C [everolimus] + COc1ccc(COc2ccc(Cc3cnc(N)nc3N)cc2OC)cc1 [GW2580] (first compound 0.02 µM, partner dose 1 µM)",247%,39.8%,65.6%,47%,362%,119%,149%,130%,266%,134%,77%,183%,153%,35%,47.7%,118%
"C[C@@H](Oc1cc(-c2cnn(C3CCNCC3)c2)cnc1N)c1c(Cl)ccc(F)c1Cl [Crizotinib] + N#Cc1c(O)c2c(-c3ccc(-c4ccccc4O)cc3)csc2[nH]c1=O [A769662] (first compound 0.2 µM, partner dose 2 µM)",95.6%,25.9%,80.6%,32.7%,94.2%,77.6%,49.4%,298%,84.1%,119%,91.5%,94%,95.3%,37.8%,70.2%,49.3%
"Cc1cc(Nc2cc(N3CCN(C)CC3)nc(/C=C/c3ccccc3)n2)n[nH]1 + N#Cc1c(O)c2c(-c3ccc(-c4ccccc4O)cc3)csc2[nH]c1=O [A769662] (first compound 0.04 µM, partner dose 2 µM)",74.8%,18.4%,50%,47.9%,20.8%,85.2%,73.4%,161%,124%,154%,146%,136%,114%,74.2%,68.5%,350%
"Nc1ncn([C@H]2C[C@H](O)[C@@H](CO)O2)c(=O)n1 [decitabine] + CCCCCCCCCCCC1=C(O)C(=O)C=C(O)C1=O [Embelin] (first compound 0.1 µM, partner dose 1.2 µM)",130%,31%,331%,105%,103%,112%,162%,112%,111%,156%,61.8%,45.6%,413%,63.1%,75.1%,79.7%
"Nc1ncn([C@H]2C[C@H](O)[C@@H](CO)O2)c(=O)n1 [decitabine] + COC(=O)c1sccc1S(=O)(=O)Nc1ccc(Nc2ccccc2)cc1OC [GSK0660] (first compound 0.1 µM, partner dose 1 µM)",66.3%,16.3%,441%,97.9%,73%,95.3%,64.2%,101%,114%,135%,324%,262%,216%,118%,79.6%,64.7%
"CS(=O)(=O)CCNCc1ccc(-c2ccc3ncnc(Nc4ccc(OCc5cccc(F)c5)c(Cl)c4)c3c2)o1 [lapatinib] + COc1ccc(COc2ccc(Cc3cnc(N)nc3N)cc2OC)cc1 [GW2580] (first compound 0.8 µM, partner dose 1 µM)",88%,70.5%,27.3%,240%,298%,110%,79.1%,262%,112%,136%,109%,102%,51%,177%,68.4%,191%
"C[C@@H](Oc1cc(-c2cnn(C3CCNCC3)c2)cnc1N)c1c(Cl)ccc(F)c1Cl [Crizotinib] + Cc1cc([N+](=O)[O-])ccc1NS(=O)(=O)c1cc(Cl)ccc1Cl [FH535] (first compound 0.2 µM, partner dose 1 µM)",151%,36.3%,87.4%,79.3%,756%,163%,1320%,662%,99.3%,54.9%,123%,157%,100%,397%,68.1%,58.9%
"Nc1nc(F)nc2c1ncn2[C@@H]1O[C@H](CO)[C@@H](O)[C@@H]1O [fludarabine] + COc1cc2ncnc(Nc3ccc(Oc4ccccc4)cc3)c2cc1OC [SrcI1] (first compound 0.2 µM, partner dose 2 µM)",1200%,38.2%,52.7%,157%,171%,96%,63.8%,229%,88%,40.7%,117%,158%,52.5%,120%,57.3%,59.7%
"CNC(=O)c1cc(Oc2ccc(NC(=O)Nc3ccc(Cl)c(C(F)(F)F)c3)cc2)ccn1 [sorafenib] + COc1ccc(COc2ccc(Cc3cnc(N)nc3N)cc2OC)cc1 [GW2580] (first compound 0.4 µM, partner dose 1 µM)",289%,20%,55.5%,37.7%,49.9%,93.2%,175%,181%,51.8%,52.4%,122%,97.9%,222%,31%,34.6%,51.5%
"CS(=O)(=O)CCNCc1ccc(-c2ccc3ncnc(Nc4ccc(OCc5cccc(F)c5)c(Cl)c4)c3c2)o1 [lapatinib] + CCCCCCCCCCCC1=C(O)C(=O)C=C(O)C1=O [Embelin] (first compound 0.8 µM, partner dose 1.2 µM)",86.5%,11%,117%,71.9%,126%,90.7%,21.2%,75.6%,92.4%,141%,49.1%,156%,178%,103%,32%,105%

# A second format for part of the listing above:
Compound	cleaved PARP positive nuclei fraction (501Mel)	cleaved PARP positive nuclei fraction (A101D)	cleaved PARP positive nuclei fraction (A2058)	cleaved PARP positive nuclei fraction (C32)	cleaved PARP positive nuclei fraction (CBRC008)	cleaved PARP positive nuclei fraction (CBRC014)	cleaved PARP positive nuclei fraction (CBRC016)	cleaved PARP positive nuclei fraction (CBRC017)	cleaved PARP positive nuclei fraction (COLO792)	cleaved PARP positive nuclei fraction (COLO800)	cleaved PARP positive nuclei fraction (COLO829)	cleaved PARP positive nuclei fraction (G361)	cleaved PARP positive nuclei fraction (IPC-298)	cleaved PARP positive nuclei fraction (IST-MEL1)	cleaved PARP positive nuclei fraction (LB2518-MEL)	cleaved PARP positive nuclei fraction (LOXIMVI)
CNC(=O)c1cc(Oc2ccc(NC(=O)Nc3ccc(Cl)c(C(F)(F)F)c3)cc2)ccn1 [sorafenib] + COc1cc(N2CCC(N3CCN(C)CC3)CC2)ccc1Nc1ncc(Cl)c(Nc2ccccc2S(=O)(=O)C(C)C)n1 [NVP-TAE684] (first compound 0.4 µM, partner dose 0.08 µM)	151%	16.5%	70.2%	38.8%	45.8%	76.2%	92%	120%	71.9%	110%	99.5%	112%	66.9%	35.7%	66.4%	52.5%
Cn1c(=O)n(-c2ccc(C(C)(C)C#N)cc2)c2c3cc(-c4cnc5ccccc5c4)ccc3ncc21 + N#Cc1c(O)c2c(-c3ccc(-c4ccccc4O)cc3)csc2[nH]c1=O [A769662] (first compound 0.004 µM, partner dose 2 µM)	151%	52.5%	90.8%	92.7%	94.8%	97.3%	48.4%	94.7%	139%	110%	83.7%	112%	109%	319%	47%	129%
